From patent publication US20200222503A1
These are yes or no findings as the source states them, for the method shown. Some results given as binding are weak or reduced against the parent protein; the word gives no strength.

The chains behind the UniProt entries cited, without tags or fusion partners. Where a name states a change or a piece, a line headed by the entry shows the natural chain unless it says otherwise. Residues count along the entry.
UniProt P27512: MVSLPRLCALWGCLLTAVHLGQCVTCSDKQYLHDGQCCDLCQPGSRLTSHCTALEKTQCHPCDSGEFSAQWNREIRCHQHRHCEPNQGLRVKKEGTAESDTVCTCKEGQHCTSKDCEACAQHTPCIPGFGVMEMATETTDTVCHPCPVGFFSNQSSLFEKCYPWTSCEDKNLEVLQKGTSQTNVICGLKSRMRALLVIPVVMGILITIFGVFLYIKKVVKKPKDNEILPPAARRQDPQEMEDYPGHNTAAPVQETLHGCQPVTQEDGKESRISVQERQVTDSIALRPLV
murine CD40 on CHOK1 cells: residues 20-289 of P27512
recombinant murine CD40 protein: residues 24-193 of P27512
UniProt Q02242: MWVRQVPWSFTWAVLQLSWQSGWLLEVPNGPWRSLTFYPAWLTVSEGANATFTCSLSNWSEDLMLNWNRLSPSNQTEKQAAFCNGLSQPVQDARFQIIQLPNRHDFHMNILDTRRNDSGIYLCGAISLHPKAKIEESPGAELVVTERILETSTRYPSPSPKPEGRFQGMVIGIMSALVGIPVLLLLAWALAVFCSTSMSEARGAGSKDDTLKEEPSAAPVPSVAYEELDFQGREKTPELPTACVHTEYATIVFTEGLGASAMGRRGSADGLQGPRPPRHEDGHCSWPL
UniProt Q8VIM0: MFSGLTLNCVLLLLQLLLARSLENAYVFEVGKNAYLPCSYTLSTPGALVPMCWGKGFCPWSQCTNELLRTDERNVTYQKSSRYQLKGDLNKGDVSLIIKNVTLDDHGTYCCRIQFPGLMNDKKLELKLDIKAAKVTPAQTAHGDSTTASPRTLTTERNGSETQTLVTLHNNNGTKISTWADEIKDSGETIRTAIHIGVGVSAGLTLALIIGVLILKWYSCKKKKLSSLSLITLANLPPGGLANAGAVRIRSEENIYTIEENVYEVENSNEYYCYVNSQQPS
UniProt P97797: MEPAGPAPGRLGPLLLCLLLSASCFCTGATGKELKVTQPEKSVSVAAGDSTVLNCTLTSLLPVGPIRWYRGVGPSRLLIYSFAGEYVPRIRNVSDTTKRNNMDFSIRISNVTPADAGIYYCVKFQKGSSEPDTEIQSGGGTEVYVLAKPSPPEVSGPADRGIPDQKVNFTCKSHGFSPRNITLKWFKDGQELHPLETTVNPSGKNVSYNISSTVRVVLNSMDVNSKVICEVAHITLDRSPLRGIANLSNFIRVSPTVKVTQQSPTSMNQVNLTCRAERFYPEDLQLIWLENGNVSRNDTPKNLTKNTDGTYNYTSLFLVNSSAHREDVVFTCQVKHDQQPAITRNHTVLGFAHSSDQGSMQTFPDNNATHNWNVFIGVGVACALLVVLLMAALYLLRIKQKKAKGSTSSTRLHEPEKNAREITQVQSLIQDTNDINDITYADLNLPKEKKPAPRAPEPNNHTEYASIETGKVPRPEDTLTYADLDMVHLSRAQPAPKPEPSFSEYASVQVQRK

Assays:
[1] = target: T1, murine OX40 on CHOK1 cells (murine) (UniProt P47741); assay: flow cytometry on transfected CHOK1 cells
T1 sequence (looked up): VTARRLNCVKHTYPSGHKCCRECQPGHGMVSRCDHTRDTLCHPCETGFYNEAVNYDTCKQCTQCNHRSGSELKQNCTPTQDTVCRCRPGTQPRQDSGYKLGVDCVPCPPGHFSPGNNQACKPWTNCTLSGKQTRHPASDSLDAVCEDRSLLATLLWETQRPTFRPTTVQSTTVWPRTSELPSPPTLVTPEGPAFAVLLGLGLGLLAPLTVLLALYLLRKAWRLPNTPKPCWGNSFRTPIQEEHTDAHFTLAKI

[2] = target: T1, murine OX40 on CHOK1 cells (murine); assay: flow cytometry on CHOK1-mOX40 cells
[3] = target: murine CD40 on CHOK1 cells (murine) (UniProt P27512); assay: flow cytometry on CHOK1/mCD40 cells
[4] = target: recombinant murine CD40 protein (murine) (UniProt P27512); assay: ELISA
[5] = target: recombinant murine CD40 protein (murine) (UniProt P27512); assay: ELISA, plate-bound recombinant murine CD40, CD40L-specific antibody detection
[6] = target: recombinant murine CD40 protein (murine) (UniProt P27512); assay: SPR

murine PD-1-Fc-OX40L chimeric protein (from UniProt Q02242 25-169; P43488 51-198) (Fc fusion)
binding [1]: binds

murine TIM3-Fc-OX40L chimeric protein (from UniProt Q8VIM0 20-193; P43488 51-198) (Fc fusion)
binding [2]: binds

murine CD172a(SIRPα)-Fc-CD40L chimeric protein (from UniProt P97797 32-373; P27548 47-260) (Fc fusion)
binding [3]: binds | binding [4]: binds | binding [5]: binds | binding [6]: binds
